# Reference: ChEMBL document CHEMBL1153370, “New pyridazine derivatives: synthesis, chemistry and biological activity” (2009)
# Tested on: Candida albicans
# Test: Antifungal activity Candida albicans ATCC 10231 at 100 ug/disk after 48 hrs at 28 degC by agar diffusion technique
# Type: functional, organism-based
sequence,measurement,value
NYSTATIN,inhibition zone (IZ),29 mm
